# Laboratory results from the supplement of paper PMC8728848.
# This is one part of the list.
# What was measured:
# Experiment in all cases: glycan array binding signal (z-score within array); higher = stronger binding
# Details in all cases: glycan notation: IUPAC condensed, linker removed
# [1] = molecular target: Neu5Ac(a2-6)Gal(b1-4)GlcNAc(b1-6)[Gal(b1-3)]GalNAc
# In short: (§1)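 The binding signal is a Z-score computed within each array and averaged over linkers. Arrays of the same protein sequence at different concentrations or buffers were also averaged together. Data originate from 3228 arrays in the Consortium for Functional Glycomics database, kept only where the protein sequence was available.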
# [2] = molecular target: Neu5Ac(a2-6)Gal(b1-4)GlcNAc6S
# In short: as §1
# Neu5Ac(a2-6)GalNAc = molecular target: Neu5Ac(a2-6)GalNAc
# In short: as §1
# [3] = molecular target: Neu5Ac(a2-6)GalNAc(b1-4)GlcNAc
# In short: as §1
# [4] = molecular target: Neu5Ac(a2-6)GalNAc(b1-4)GlcNAc6S
# In short: as §1
# [5] = molecular target: Neu5Ac(a2-6)GlcNAc(b1-4)GlcNAc
# In short: as §1
# [6] = molecular target: Neu5Ac(a2-6)GlcNAc(b1-4)GlcNAc(b1-4)GlcNAc
# In short: as §1
# Neu5Ac(a2-8)Neu5Ac = molecular target: Neu5Ac(a2-8)Neu5Ac
# In short: as §1
# [7] = molecular target: Neu5Ac(a2-8)Neu5Ac(a2-3)Gal(b1-3)GalNAc(b1-4)[Neu5Ac(a2-3)]Gal(b1-4)Glc
# In short: as §1
# [8] = molecular target: Neu5Ac(a2-8)Neu5Ac(a2-3)Gal(b1-3)GalNAc(b1-4)[Neu5Ac(a2-8)Neu5Ac(a2-3)]Gal(b1-4)Glc
# In short: as §1
# [9] = molecular target: Neu5Ac(a2-8)Neu5Ac(a2-3)Gal(b1-4)Glc
# In short: as §1
# [10] = molecular target: Neu5Ac(a2-8)Neu5Ac(a2-3)Gal(b1-4)GlcNAc
# In short: as §1
# [11] = molecular target: Neu5Ac(a2-8)Neu5Ac(a2-3)[Gal(b1-3)GalNAc(b1-4)]Gal(b1-4)Glc
# In short: as §1
# [12] = molecular target: Neu5Ac(a2-8)Neu5Ac(a2-3)[GalNAc(b1-4)]Gal(b1-4)Glc
# In short: as §1
# [13] = molecular target: Neu5Ac(a2-8)Neu5Ac(a2-8)Neu5Ac
# In short: as §1
# [14] = molecular target: Neu5Ac(a2-8)Neu5Ac(a2-8)Neu5Ac(a2-3)Gal(b1-4)Glc
# In short: as §1
# [15] = molecular target: Neu5Ac(a2-8)Neu5Ac(a2-8)Neu5Ac(a2-3)[Gal(b1-3)GalNAc(b1-4)]Gal(b1-4)Glc
# In short: as §1
# [16] = molecular target: Neu5Ac(a2-8)Neu5Ac(a2-8)Neu5Ac(a2-3)[GalNAc(b1-4)]Gal(b1-4)Glc
# In short: as §1
# [17] = molecular target: Neu5Ac(a2-8)Neu5Ac(a2-8)Neu5Ac(a2-8)Neu5Ac(a2-3)[GalNAc(b1-4)]Gal(b1-4)Glc
# In short: as §1
# [18] = molecular target: Neu5Ac(a2-8)Neu5Gc(a2-3)Gal(b1-4)GlcNAc
# In short: as §1
# [19] = molecular target: Neu5Ac(b2-6)Gal(b1-4)GlcNAc
# In short: as §1
# Neu5Ac(b2-6)GalNAc = molecular target: Neu5Ac(b2-6)GalNAc
# In short: as §1
# [20] = molecular target: Neu5Ac9Ac(a2-3)Gal(b1-3)GlcNAc
# In short: as §1
# [21] = molecular target: Neu5Ac9Ac(a2-3)Gal(b1-4)GlcNAc
# In short: as §1
# [22] = molecular target: Neu5Ac9Ac(a2-6)Gal(b1-4)GlcNAc
# In short: as §1
# [23] = molecular target: Neu5Gc(a2-3)Gal(b1-3)GlcNAc
# In short: as §1
# [24] = molecular target: Neu5Gc(a2-3)Gal(b1-3)[Fuc(a1-4)]GlcNAc
# In short: as §1
# Neu5Gc(a2-3)Gal(b1-4)Glc = molecular target: Neu5Gc(a2-3)Gal(b1-4)Glc
# In short: as §1
# [25] = molecular target: Neu5Gc(a2-3)Gal(b1-4)GlcNAc
# In short: as §1
# [26] = molecular target: Neu5Gc(a2-3)Gal(b1-4)GlcNAc(b1-3)Gal(b1-4)GlcNAc(b1-2)Man(a1-3)[Neu5Gc(a2-3)Gal(b1-4)GlcNAc(b1-3)Gal(b1-4)GlcNAc(b1-2)Man(a1-6)]Man(b1-4)GlcNAc(b1-4)GlcNAc
# In short: as §1
# [27] = molecular target: Neu5Gc(a2-3)Gal(b1-4)[Fuc(a1-3)]GlcNAc
# In short: as §1
# [28] = molecular target: Neu5Gc(a2-6)Gal(b1-4)GlcNAc
# In short: as §1
# Neu5Gc(a2-6)GalNAc = molecular target: Neu5Gc(a2-6)GalNAc
# In short: as §1
# [29] = molecular target: Neu5Gc(a2-8)Neu5Ac(a2-3)Gal(b1-4)GlcNAc
# In short: as §1
# [30] = molecular target: Neu5Gc(a2-8)Neu5Gc(a2-3)Gal(b1-4)GlcNAc
# In short: as §1
# [31] = molecular target: Neu5Gc(a2-8)Neu5Gc(a2-3)Gal(b1-4)GlcNAc(b1-3)Gal(b1-4)GlcNAc
# In short: as §1
# [32] = molecular target: Neu5Gc(a2-8)Neu5Gc(a2-6)Gal(b1-4)GlcNAc
# In short: as §1
# [33] = molecular target: Neu5Gc(b2-6)Gal(b1-4)GlcNAc
# In short: as §1
binder,measurement,setting,value
Aap arpt (Staphylococcus epidermidis) (protein) NNEAPQMSSTLQAEEGSNAEAPQSEPTKAEEGGNAEAAQSEPTKAEEGGNAEAPQSEPTKAEEGGNAEAAQSEPTKTEEGSNVKAAQSEPTKAEEGSNAEAPQSEPTKTEEGSNAKAAQSEPTKAEEGGNAEAAQSEPTKTEEGSNAEAPQSEPTKAEEGGYAEAPQSEPTKTEEGGNAEAPNVPTIKA,glycan array binding signal (z-score),[1],0.173
same,glycan array binding signal (z-score),[2],-0.907
same,glycan array binding signal (z-score),Neu5Ac(a2-6)GalNAc,-0.469
same,glycan array binding signal (z-score),[3],-0.35
same,glycan array binding signal (z-score),[4],0.669
same,glycan array binding signal (z-score),[5],-0.24
same,glycan array binding signal (z-score),[6],-0.144
same,glycan array binding signal (z-score),Neu5Ac(a2-8)Neu5Ac,0.346
same,glycan array binding signal (z-score),[7],-1.08
same,glycan array binding signal (z-score),[8],-0.105
same,glycan array binding signal (z-score),[9],1.97
same,glycan array binding signal (z-score),[10],-0.817
same,glycan array binding signal (z-score),[11],0.455
same,glycan array binding signal (z-score),[12],-0.974
same,glycan array binding signal (z-score),[13],0.137
same,glycan array binding signal (z-score),[14],0.417
same,glycan array binding signal (z-score),[15],0.163
same,glycan array binding signal (z-score),[16],0.543
same,glycan array binding signal (z-score),[17],0.92
same,glycan array binding signal (z-score),[18],-0.716
same,glycan array binding signal (z-score),[19],-1.06
same,glycan array binding signal (z-score),Neu5Ac(b2-6)GalNAc,-0.704
same,glycan array binding signal (z-score),[20],-0.136
same,glycan array binding signal (z-score),[21],0.07
same,glycan array binding signal (z-score),[22],-0.308
same,glycan array binding signal (z-score),[23],-0.085
same,glycan array binding signal (z-score),[24],-0.921
same,glycan array binding signal (z-score),Neu5Gc(a2-3)Gal(b1-4)Glc,1.13
same,glycan array binding signal (z-score),[25],0.041
same,glycan array binding signal (z-score),[26],-1.29
same,glycan array binding signal (z-score),[27],0.408
same,glycan array binding signal (z-score),[28],0.146
same,glycan array binding signal (z-score),Neu5Gc(a2-6)GalNAc,0.687
same,glycan array binding signal (z-score),[29],-0.497
same,glycan array binding signal (z-score),[30],-0.599
same,glycan array binding signal (z-score),[31],-0.491
same,glycan array binding signal (z-score),[32],-1.44
same,glycan array binding signal (z-score),[33],-1.08

# An excerpt of these results, tab-delimited.
binder	measurement	setting	value
Aap arpt (Staphylococcus epidermidis) (protein) NNEAPQMSSTLQAEEGSNAEAPQSEPTKAEEGGNAEAAQSEPTKAEEGGNAEAPQSEPTKAEEGGNAEAAQSEPTKTEEGSNVKAAQSEPTKAEEGSNAEAPQSEPTKTEEGSNAKAAQSEPTKAEEGGNAEAAQSEPTKTEEGSNAEAPQSEPTKAEEGGYAEAPQSEPTKTEEGGNAEAPNVPTIKA	glycan array binding signal (z-score)	Neu5Ac(a2-8)Neu5Ac	0.346
same	glycan array binding signal (z-score)	[7]	-1.08
same	glycan array binding signal (z-score)	[8]	-0.105
same	glycan array binding signal (z-score)	[9]	1.97
same	glycan array binding signal (z-score)	[10]	-0.817
same	glycan array binding signal (z-score)	[11]	0.455
same	glycan array binding signal (z-score)	[12]	-0.974
same	glycan array binding signal (z-score)	[13]	0.137
